Results are given in words; binding and its absence hold for the method and conditions named. In cells and extracts the contact can be indirect. Some results given as binding are weak or reduced against the parent protein; the word gives no strength. Where a sequence is shown, tags or fusion partners need not be part of it.
Target: T1, FLAG-HEF1 WT (human enhancer filamentation 1, wild-type, full-length) (human) (UniProt Q14511)
T1 sequence: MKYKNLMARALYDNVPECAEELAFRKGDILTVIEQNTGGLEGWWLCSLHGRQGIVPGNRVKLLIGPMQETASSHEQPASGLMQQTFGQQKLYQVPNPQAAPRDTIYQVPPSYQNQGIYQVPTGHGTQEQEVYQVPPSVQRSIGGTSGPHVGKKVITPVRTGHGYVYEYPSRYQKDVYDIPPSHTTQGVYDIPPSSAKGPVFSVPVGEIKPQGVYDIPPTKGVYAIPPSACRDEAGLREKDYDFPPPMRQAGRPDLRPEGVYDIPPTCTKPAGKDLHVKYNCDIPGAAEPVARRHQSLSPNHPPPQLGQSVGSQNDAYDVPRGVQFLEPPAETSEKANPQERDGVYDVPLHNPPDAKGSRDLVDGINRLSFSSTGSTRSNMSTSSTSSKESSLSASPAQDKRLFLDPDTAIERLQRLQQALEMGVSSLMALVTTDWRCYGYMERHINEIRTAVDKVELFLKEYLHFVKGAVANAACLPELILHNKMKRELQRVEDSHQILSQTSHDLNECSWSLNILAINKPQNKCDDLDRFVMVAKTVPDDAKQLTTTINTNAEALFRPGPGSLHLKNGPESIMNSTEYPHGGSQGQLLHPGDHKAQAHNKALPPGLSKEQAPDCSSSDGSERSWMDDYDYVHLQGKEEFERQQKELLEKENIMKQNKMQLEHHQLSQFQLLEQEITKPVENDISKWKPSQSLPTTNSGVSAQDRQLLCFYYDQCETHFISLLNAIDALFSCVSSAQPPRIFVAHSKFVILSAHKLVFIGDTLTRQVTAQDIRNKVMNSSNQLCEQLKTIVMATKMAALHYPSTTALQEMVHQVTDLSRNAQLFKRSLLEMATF
Assay: co-IP; lysates of FLAG-HEF1-transfected cells, thymidine-treated (S phase), asynchronously growing or nocodazole-treated (M phase); immunoprecipitated with anti-FLAG antibody, immunoblotted for Plk1; TBSN buffer (20 mM Tris-Cl pH 8.0, 150 mM NaCl, 0.5% Nonidet P-40), 4 °C

By UniProt entry, the sequences of proteins in these tests, tags left out.
UniProt P53350: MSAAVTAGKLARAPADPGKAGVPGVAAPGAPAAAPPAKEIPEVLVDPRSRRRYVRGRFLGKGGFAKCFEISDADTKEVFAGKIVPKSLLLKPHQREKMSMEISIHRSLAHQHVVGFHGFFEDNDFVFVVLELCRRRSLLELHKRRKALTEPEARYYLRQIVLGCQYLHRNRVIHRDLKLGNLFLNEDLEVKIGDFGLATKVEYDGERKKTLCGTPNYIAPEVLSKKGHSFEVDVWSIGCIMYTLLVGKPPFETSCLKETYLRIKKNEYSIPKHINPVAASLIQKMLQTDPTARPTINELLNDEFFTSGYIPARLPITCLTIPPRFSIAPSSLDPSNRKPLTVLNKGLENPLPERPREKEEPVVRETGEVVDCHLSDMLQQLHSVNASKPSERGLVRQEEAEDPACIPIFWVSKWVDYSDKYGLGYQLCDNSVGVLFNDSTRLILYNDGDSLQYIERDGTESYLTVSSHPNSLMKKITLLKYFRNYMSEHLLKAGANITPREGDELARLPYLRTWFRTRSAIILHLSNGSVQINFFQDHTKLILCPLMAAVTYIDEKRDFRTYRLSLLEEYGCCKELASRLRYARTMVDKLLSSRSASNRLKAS

Substance: Polo-like kinase 1 (Plk1), endogenous (from UniProt P53350 1-603)
- binding: binds
